At least one compound was matched to its structure with a doubt left.
Target: T1, FOXO1-IQGAP1 interaction (Homo sapiens, UniProt P46940)
T1 construct: endogenous in cells; host or cells: LNCaP
Test: co-IP of endogenous FOXO1 and IQGAP1 in LNCaP cells
Format: cell-based
Conditions: PTEN-null LNCaP cells, 30 μM for 6 hours before IP

By UniProt entry, the sequences of proteins in these tests, tags left out. Residues count along the entry.
UniProt P46940, 2-1657 limits assumed: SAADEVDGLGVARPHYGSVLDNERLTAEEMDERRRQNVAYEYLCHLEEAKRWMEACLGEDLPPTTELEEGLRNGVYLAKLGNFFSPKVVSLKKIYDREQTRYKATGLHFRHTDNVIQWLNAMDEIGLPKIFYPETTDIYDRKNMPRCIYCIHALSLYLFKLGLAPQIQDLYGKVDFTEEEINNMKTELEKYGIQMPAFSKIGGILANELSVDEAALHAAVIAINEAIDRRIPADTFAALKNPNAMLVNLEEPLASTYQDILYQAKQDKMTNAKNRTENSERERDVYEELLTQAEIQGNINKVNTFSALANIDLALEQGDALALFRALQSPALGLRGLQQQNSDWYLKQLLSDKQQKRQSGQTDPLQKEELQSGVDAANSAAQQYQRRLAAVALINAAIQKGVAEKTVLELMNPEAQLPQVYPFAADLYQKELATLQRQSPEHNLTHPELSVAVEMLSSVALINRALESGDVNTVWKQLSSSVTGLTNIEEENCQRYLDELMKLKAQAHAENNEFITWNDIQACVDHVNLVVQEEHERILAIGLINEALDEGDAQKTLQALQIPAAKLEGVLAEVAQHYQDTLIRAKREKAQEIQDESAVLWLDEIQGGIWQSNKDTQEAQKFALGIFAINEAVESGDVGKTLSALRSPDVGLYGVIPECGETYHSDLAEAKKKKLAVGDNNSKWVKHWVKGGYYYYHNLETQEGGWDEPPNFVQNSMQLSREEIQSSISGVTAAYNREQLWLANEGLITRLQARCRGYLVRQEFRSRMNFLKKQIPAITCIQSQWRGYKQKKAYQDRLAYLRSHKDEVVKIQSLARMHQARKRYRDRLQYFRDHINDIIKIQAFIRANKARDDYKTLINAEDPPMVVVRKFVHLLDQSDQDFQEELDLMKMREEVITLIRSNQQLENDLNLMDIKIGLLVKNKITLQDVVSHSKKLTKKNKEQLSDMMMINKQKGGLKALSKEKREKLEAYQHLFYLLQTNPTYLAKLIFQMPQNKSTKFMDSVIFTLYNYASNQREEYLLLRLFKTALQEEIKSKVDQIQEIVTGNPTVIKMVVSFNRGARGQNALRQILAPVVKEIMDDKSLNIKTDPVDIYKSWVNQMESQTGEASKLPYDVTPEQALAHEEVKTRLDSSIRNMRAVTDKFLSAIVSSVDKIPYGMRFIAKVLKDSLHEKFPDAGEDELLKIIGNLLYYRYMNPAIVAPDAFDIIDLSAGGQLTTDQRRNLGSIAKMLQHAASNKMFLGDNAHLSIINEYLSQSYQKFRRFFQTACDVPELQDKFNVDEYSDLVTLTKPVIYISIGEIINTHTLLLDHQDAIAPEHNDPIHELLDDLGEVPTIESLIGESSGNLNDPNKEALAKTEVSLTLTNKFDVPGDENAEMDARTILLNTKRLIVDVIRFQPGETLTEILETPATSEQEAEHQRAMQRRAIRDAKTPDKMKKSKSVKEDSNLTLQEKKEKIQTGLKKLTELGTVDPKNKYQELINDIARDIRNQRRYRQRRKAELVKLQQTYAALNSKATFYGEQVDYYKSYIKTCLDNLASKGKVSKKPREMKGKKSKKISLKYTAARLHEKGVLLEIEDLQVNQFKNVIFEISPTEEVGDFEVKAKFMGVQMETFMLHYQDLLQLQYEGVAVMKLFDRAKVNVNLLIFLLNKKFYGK

In the case of `O=c1cc(N2CCOCC2)oc2c(-c3ccccc3)cccc12` [LY294002], the FOXO1-IQGAP1 interaction is reported as “decreased the FOXO1-IQGAP1 interaction to the background level”.

Source: US10954277B2, “Materials and methods for treating cancer” (Mayo Foundation for Medical Education and Research, priority 2016, dated 2021)
